The target of this assay is PhoR-T25 (Salmonella enterica serovar Typhimurium). In words: two-hybrid.

These are yes or no findings as the source states them, for the method shown. Some binding calls cover weakened binding; strength is not graded here.

“T18C-fused wild-type PhoU (from UniProt A0A0F6B922 1-241)”: the binding result is listed as “binds”.

(Values after PMC13577022.)
